Reference: the supplement of paper PMC8728848
Some of the results follow.

Legend:
Test in all cases: glycan array binding signal (z-score within array); higher = stronger binding
Conditions in all cases: glycan notation: IUPAC condensed, linker removed
[1] = biological target: Fuc(a1-2)[GalNAc(a1-3)]Gal(b1-3)GlcNAc(b1-3)GalNAc
How it was run: (§1)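 Columns mapping to the same glycan were averaged after glycan names were converted to IUPAC-condensed notation. The data come from 3228 arrays in the Consortium for Functional Glycomics database, limited to those with an available protein sequence. Binding is reported as a within-array Z-score averaged across arrays of one protein sequence and across linkers.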

[2] = biological target: Fuc(a1-2)[GalNAc(a1-3)]Gal(b1-3)GlcNAc(b1-6)GalNAc
How it was run: as §1

[3] = biological target: Fuc(a1-2)[GalNAc(a1-3)]Gal(b1-4)Glc
How it was run: as §1

[4] = biological target: Fuc(a1-2)[GalNAc(a1-3)]Gal(b1-4)GlcNAc
How it was run: as §1

[5] = biological target: Fuc(a1-2)[GalNAc(a1-3)]Gal(b1-4)GlcNAc(b1-2)Man
How it was run: as §1

[6] = biological target: Fuc(a1-2)[GalNAc(a1-3)]Gal(b1-4)GlcNAc(b1-2)Man(a1-3)[Fuc(a1-2)[GalNAc(a1-3)]Gal(b1-4)GlcNAc(b1-2)Man(a1-6)]Man(b1-4)GlcNAc(b1-4)GlcNAc
How it was run: as §1

[7] = biological target: Fuc(a1-2)[GalNAc(a1-3)]Gal(b1-4)GlcNAc(b1-2)Man(a1-3)[Fuc(a1-2)[GalNAc(a1-3)]Gal(b1-4)GlcNAc(b1-2)Man(a1-6)]Man(b1-4)GlcNAc(b1-4)[Fuc(a1-6)]GlcNAc
How it was run: as §1

[8] = biological target: Fuc(a1-2)[GalNAc(a1-3)]Gal(b1-4)GlcNAc(b1-3)Gal(b1-4)GlcNAc
How it was run: as §1

[9] = biological target: Fuc(a1-2)[GalNAc(a1-3)]Gal(b1-4)GlcNAc(b1-3)Gal(b1-4)GlcNAc(b1-3)Gal(b1-4)GlcNAc
How it was run: as §1

[10] = biological target: Fuc(a1-2)[GalNAc(a1-3)]Gal(b1-4)GlcNAc(b1-3)GalNAc
How it was run: as §1

[11] = biological target: Fuc(a1-2)[GalNAc(a1-3)]Gal(b1-4)GlcNAc(b1-3)[Fuc(a1-2)[GalNAc(a1-3)]Gal(b1-4)GlcNAc(b1-6)]GalNAc
How it was run: as §1

[12] = biological target: Fuc(a1-2)[GalNAc(a1-3)]Gal(b1-4)GlcNAc(b1-6)GalNAc
How it was run: as §1

[13] = biological target: Fuc(a1-2)[GalNAc(a1-3)]Gal(b1-4)[Fuc(a1-3)]GlcNAc
How it was run: as §1

[14] = biological target: Fuc(a1-2)[GalNAc(a1-3)]Gal(b1-4)[Fuc(a1-3)]GlcNAc(b1-3)GalNAc
How it was run: as §1

[15] = biological target: Fuc(a1-2)[GalNAc(a1-4)]Gal(b1-4)GlcNAc
How it was run: as §1

[16] = biological target: Fuc(a1-2)[GalNAc(b1-3)]Gal
How it was run: as §1

[17] = biological target: Fuc(a1-3)GlcNAc
How it was run: as §1

[18] = biological target: Fuc(a1-3)[Gal(b1-4)]Glc6S
How it was run: as §1

[19] = biological target: Fuc(a1-3)[Gal(b1-4)]GlcNAc
How it was run: as §1

[20] = biological target: Fuc(a1-3)[Gal(b1-4)]GlcNAc(b1-2)Man
How it was run: as §1

[21] = biological target: Fuc(a1-3)[Gal(b1-4)]GlcNAc(b1-2)Man(a1-3)[Fuc(a1-3)[Gal(b1-4)]GlcNAc(b1-2)Man(a1-6)]Man(b1-4)GlcNAc(b1-4)GlcNAc
How it was run: as §1

[22] = biological target: Fuc(a1-3)[Gal(b1-4)]GlcNAc(b1-2)Man(a1-3)[Fuc(a1-3)[Gal(b1-4)]GlcNAc(b1-2)Man(a1-6)]Man(b1-4)GlcNAc(b1-4)[Fuc(a1-6)]GlcNAc
How it was run: as §1

[23] = biological target: Fuc(a1-3)[Gal(b1-4)]GlcNAc(b1-3)Gal(b1-3)[Fuc(a1-4)]GlcNAc
How it was run: as §1

[24] = biological target: Fuc(a1-3)[Gal(b1-4)]GlcNAc(b1-3)Gal(b1-4)[Fuc(a1-3)]GlcNAc
How it was run: as §1

[25] = biological target: Fuc(a1-3)[Gal(b1-4)]GlcNAc(b1-3)Gal(b1-4)[Fuc(a1-3)]GlcNAc(b1-3)Gal(b1-4)[Fuc(a1-3)]GlcNAc
How it was run: as §1

[26] = biological target: Fuc(a1-3)[Gal(b1-4)]GlcNAc(b1-3)GalNAc
How it was run: as §1

[27] = biological target: Fuc(a1-3)[Gal(b1-4)]GlcNAc(b1-6)GalNAc
How it was run: as §1

[28] = biological target: Fuc(a1-3)[Gal(b1-4)]GlcNAc(b1-6)[Gal(b1-3)GlcNAc(b1-3)]Gal(b1-4)Glc
How it was run: as §1

[29] = biological target: Fuc(a1-3)[Gal(b1-4)]GlcNAc6S
How it was run: as §1

[30] = biological target: Fuc(a1-3)[Gal3S(b1-4)]Glc
How it was run: as §1

[31] = biological target: Fuc(a1-3)[Gal3S(b1-4)]GlcNAc
How it was run: as §1

[32] = biological target: Fuc(a1-3)[Gal3S(b1-4)]GlcNAc6S
How it was run: as §1

[33] = biological target: Fuc(a1-3)[GalNAc(b1-4)]GlcNAc
How it was run: as §1

[34] = biological target: Fuc(a1-3)[GalNAc(b1-4)]GlcNAc6S
How it was run: as §1

[35] = biological target: Fuc(a1-4)GlcNAc
How it was run: as §1

[36] = biological target: Fuc(b1-3)GlcNAc
How it was run: as §1

[37] = biological target: Gal(a1-2)Gal
How it was run: as §1

[38] = biological target: Gal(a1-3)Gal
How it was run: as §1

[39] = biological target: Gal(a1-3)Gal(b1-3)GlcNAc
How it was run: as §1

[40] = biological target: Gal(a1-3)Gal(b1-3)GlcNAc(b1-2)Man
How it was run: as §1

[41] = biological target: Gal(a1-3)Gal(b1-3)GlcNAc(b1-2)Man(a1-3)[Gal(a1-3)Gal(b1-3)GlcNAc(b1-2)Man(a1-6)]Man(b1-4)GlcNAc(b1-4)GlcNAc
How it was run: as §1

[42] = biological target: Gal(a1-3)Gal(b1-3)GlcNAc(b1-3)GalNAc
How it was run: as §1

[43] = biological target: Gal(a1-3)Gal(b1-3)GlcNAc(b1-6)GalNAc
How it was run: as §1

[44] = biological target: Gal(a1-3)Gal(b1-3)[Fuc(a1-4)]GlcNAc(b1-2)Man(a1-3)[Gal(a1-3)Gal(b1-3)[Fuc(a1-4)]GlcNAc(b1-2)Man(a1-6)]Man(b1-4)GlcNAc(b1-4)GlcNAc
How it was run: as §1

[45] = biological target: Gal(a1-3)Gal(b1-4)Glc
How it was run: as §1

B1: AT1G77380(17) (Arabidopsis thaliana), Q39134 (protein)
chain: MVQNHQTVLAVDMPQTGGSKYLDDDGKNKRTGSVWTASAHIITAVIGSGVLSLAWATAQLGWLAGPVVMLLFSAVTYFTSSLLAACYRSGDPISGKRNYTYMDAVRSNLGGVKVTLCGIVQYLNIFGVAIGYTIASAISMMAIKRSNCFHKSGGKDPCHMNSNPYMIAFGLVQILFSQIPDFDQLWWLSILAAVMSFTYSSAGLALGIAQVVVNGKVKGSLTGISIGAVTETQKIWRTFQALGDIAFAYSYSIILIEIQDTVKSPPSEEKTMKKATLVSVSVTTMFYMLCGCMGYAAFGDLSPGNLLTGFGFYNPYWLLDIANAAIVIHLIGAYQVYCQPLFAFIEKQASIQFPDSEFIAKDIKIPIPGFKPLRLNVFRLIWRTVFVIITTVISMLLPFFNDVVGLLGALGFWPLTVYFPVEMYIAQKKIPRWSTRWVCLQVFSLGCLVVSIAAAAGSIAGVLLDLKSYKPFRSEY
glycan array binding signal (z-score) [1]: 0.081 | glycan array binding signal (z-score) [2]: -0.395 | glycan array binding signal (z-score) [3]: -0.659 | glycan array binding signal (z-score) [4]: -0.628 | glycan array binding signal (z-score) [5]: 1.32 | glycan array binding signal (z-score) [6]: -0.981 | glycan array binding signal (z-score) [7]: 0.816 | glycan array binding signal (z-score) [8]: -0.481 | glycan array binding signal (z-score) [9]: -0.453 | glycan array binding signal (z-score) [10]: -0.519 | glycan array binding signal (z-score) [11]: -1 | glycan array binding signal (z-score) [12]: -0.29 | glycan array binding signal (z-score) [13]: -0.751 | glycan array binding signal (z-score) [14]: 2.44 | glycan array binding signal (z-score) [15]: -0.894 | glycan array binding signal (z-score) [16]: -0.192 | glycan array binding signal (z-score) [17]: 1.23 | glycan array binding signal (z-score) [18]: -0.726 | glycan array binding signal (z-score) [19]: -0.149 | glycan array binding signal (z-score) [20]: -0.51 | glycan array binding signal (z-score) [21]: 0.032 | glycan array binding signal (z-score) [22]: -0.223 | glycan array binding signal (z-score) [23]: 0.289 | glycan array binding signal (z-score) [24]: -0.28 | glycan array binding signal (z-score) [25]: -0.877 | glycan array binding signal (z-score) [26]: 0.285 | glycan array binding signal (z-score) [27]: 1.82 | glycan array binding signal (z-score) [28]: 2.75 | glycan array binding signal (z-score) [29]: -0.298 | glycan array binding signal (z-score) [30]: -0.751 | glycan array binding signal (z-score) [31]: 0.3 | glycan array binding signal (z-score) [32]: -0.316 | glycan array binding signal (z-score) [33]: -0.276 | glycan array binding signal (z-score) [34]: -0.818 | glycan array binding signal (z-score) [35]: 1.45 | glycan array binding signal (z-score) [36]: -0.021 | glycan array binding signal (z-score) [37]: 0.129 | glycan array binding signal (z-score) [38]: -0.04 | glycan array binding signal (z-score) [39]: -0.752 | glycan array binding signal (z-score) [40]: -0.943 | glycan array binding signal (z-score) [41]: 0.04 | glycan array binding signal (z-score) [42]: -0.155 | glycan array binding signal (z-score) [43]: -0.733 | glycan array binding signal (z-score) [44]: 1.44 | glycan array binding signal (z-score) [45]: -0.793
